The target in experiment [1] is KCMF1–3×Flag (wild type) (human) (UniProt Q9P0J7). Put plainly: co-IP; KCMF1–Flag immunoprecipitation from ΔUBR4 HEK293T cells, blot for ABHD10–HA.
Experiment [2] addresses KCMF1–Flag ΔZZ (human) (UniProt Q9P0J7). The experiment is described as above.
Experiment [3] addresses KCMF1–3×Flag (wild type) (human) (UniProt Q9P0J7). Put plainly: co-IP; anti-Flag M2 affinity purification of KCMF1–Flag variants from cell lysate (40 mM HEPES 7.5, 150 mM NaCl, 0.1% NP-40), Western blot for endogenous UBR4, ABHD10 or ABHD10^HA. A general note: A western blot detects proteins with antibodies after separation by electrophoresis.

Amino acid sequences for entries named in this document (tags omitted). A change or cut given only in a name is not applied to a line headed by its entry.
UniProt Q9P0J7: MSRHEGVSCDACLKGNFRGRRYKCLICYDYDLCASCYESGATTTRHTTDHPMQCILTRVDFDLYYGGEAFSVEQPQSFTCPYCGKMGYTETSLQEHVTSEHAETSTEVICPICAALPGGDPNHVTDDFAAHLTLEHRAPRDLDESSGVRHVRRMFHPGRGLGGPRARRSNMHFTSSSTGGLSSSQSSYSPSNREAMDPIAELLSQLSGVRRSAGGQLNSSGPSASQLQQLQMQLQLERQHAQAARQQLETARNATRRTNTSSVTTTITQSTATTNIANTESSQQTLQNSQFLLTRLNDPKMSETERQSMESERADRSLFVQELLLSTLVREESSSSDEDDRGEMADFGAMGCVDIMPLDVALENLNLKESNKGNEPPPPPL
UniProt Q9NUJ1: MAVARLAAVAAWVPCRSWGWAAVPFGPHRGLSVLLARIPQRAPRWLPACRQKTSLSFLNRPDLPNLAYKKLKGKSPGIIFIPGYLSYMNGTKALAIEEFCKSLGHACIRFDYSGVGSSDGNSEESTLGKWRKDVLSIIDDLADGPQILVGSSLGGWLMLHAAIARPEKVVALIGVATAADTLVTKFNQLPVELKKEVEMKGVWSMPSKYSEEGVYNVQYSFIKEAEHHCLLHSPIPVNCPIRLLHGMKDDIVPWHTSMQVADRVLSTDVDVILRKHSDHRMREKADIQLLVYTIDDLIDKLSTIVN

These are yes or no findings as the source states them, for the method shown. In cells and extracts the contact can be indirect. For part of these data: A result given as binding can be weak or reduced; the word gives no strength.

Data on 1 substance can be found in article PMC12286842.

Consider ABHD10–3×HA (from UniProt Q9NUJ1), for which the binding result is “binds” in experiment [1], “no binding” in experiment [2] and “binds” in experiment [3].
